Drawing on the supplement of paper PMC10849652, this text covers log2 fold change for 26 targets.

By UniProt entry, the sequences of proteins in these tests, tags left out. Where a name states a change or a piece, a line headed by the entry shows the natural chain unless it says otherwise.
UniProt P58166: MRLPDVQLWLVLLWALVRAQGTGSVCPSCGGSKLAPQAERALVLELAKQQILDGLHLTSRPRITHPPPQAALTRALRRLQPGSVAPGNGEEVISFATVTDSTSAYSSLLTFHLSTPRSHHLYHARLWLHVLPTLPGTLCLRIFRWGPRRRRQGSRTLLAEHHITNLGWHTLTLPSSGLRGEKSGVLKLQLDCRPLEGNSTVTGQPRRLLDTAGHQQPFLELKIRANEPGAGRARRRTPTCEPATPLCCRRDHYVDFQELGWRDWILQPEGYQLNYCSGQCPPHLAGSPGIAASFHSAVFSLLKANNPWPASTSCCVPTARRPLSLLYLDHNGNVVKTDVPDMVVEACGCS
UniProt P38935: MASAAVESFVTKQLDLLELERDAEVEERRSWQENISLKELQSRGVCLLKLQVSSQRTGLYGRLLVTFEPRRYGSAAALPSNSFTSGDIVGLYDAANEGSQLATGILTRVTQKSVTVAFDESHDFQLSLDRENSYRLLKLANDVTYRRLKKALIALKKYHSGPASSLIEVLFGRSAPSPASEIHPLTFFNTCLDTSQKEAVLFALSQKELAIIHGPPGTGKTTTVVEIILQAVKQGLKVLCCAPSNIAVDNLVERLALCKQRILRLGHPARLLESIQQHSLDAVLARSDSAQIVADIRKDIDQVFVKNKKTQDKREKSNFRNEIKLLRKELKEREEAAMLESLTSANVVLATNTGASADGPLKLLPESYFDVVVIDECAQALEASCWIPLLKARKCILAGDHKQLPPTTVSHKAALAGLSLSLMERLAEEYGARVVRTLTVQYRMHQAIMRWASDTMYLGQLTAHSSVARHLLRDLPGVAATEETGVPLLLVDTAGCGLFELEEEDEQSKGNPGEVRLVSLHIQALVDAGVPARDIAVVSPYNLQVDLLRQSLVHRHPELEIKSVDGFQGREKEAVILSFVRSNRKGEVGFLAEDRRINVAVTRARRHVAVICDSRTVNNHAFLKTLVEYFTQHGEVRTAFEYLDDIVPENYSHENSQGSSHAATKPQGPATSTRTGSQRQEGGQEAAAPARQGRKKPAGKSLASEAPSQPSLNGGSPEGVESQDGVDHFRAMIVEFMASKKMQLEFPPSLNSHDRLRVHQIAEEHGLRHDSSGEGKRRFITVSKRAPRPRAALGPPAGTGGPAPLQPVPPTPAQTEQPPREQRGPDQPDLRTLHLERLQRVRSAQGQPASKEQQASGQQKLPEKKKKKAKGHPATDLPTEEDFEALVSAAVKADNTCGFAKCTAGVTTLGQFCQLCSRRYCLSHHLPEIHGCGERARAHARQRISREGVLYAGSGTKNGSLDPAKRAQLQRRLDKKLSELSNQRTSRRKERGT
UniProt Q9Y366: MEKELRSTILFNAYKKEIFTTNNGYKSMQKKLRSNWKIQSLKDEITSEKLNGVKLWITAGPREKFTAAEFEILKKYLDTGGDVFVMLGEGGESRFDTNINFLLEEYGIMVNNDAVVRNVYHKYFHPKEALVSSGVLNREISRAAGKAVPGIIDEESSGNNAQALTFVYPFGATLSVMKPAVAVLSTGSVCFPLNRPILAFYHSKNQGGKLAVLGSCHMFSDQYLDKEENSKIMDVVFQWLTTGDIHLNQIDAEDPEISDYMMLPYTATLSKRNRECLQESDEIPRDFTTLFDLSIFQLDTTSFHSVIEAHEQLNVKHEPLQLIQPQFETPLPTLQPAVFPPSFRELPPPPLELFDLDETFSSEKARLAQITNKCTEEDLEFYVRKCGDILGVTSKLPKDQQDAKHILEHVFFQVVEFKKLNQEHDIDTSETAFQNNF
UniProt Q8WYH8, whole entry, looked up: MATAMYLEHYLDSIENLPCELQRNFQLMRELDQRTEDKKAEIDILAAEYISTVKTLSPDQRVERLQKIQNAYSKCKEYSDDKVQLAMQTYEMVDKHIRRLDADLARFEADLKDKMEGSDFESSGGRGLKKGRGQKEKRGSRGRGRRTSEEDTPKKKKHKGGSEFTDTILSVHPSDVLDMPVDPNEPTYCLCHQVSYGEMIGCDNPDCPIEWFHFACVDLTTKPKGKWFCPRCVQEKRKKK
UniProt Q96D96: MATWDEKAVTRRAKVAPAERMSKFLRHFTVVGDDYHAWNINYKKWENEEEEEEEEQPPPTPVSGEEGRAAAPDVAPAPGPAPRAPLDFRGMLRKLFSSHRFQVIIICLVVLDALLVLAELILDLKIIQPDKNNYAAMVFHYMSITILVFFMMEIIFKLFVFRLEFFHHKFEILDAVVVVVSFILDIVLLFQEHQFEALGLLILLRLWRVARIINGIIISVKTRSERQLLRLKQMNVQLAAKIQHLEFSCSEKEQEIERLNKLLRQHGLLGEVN
UniProt P22692: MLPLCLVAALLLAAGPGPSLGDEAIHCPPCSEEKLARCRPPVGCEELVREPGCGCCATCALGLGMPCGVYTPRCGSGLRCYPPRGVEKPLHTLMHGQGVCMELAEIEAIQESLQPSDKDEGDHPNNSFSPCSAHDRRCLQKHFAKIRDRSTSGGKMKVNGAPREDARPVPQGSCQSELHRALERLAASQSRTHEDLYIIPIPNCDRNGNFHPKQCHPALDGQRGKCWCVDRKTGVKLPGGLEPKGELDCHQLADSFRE
UniProt Q9C086, whole entry, looked up: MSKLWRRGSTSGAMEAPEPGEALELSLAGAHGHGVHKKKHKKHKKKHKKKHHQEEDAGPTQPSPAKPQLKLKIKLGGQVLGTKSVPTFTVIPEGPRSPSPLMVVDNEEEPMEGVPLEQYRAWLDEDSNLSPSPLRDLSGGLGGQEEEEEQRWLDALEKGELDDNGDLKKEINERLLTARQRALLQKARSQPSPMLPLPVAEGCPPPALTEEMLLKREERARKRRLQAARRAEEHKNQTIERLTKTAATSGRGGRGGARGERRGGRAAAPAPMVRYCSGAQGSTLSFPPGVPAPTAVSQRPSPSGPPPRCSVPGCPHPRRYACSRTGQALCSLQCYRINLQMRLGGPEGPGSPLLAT
UniProt Q9NWB7: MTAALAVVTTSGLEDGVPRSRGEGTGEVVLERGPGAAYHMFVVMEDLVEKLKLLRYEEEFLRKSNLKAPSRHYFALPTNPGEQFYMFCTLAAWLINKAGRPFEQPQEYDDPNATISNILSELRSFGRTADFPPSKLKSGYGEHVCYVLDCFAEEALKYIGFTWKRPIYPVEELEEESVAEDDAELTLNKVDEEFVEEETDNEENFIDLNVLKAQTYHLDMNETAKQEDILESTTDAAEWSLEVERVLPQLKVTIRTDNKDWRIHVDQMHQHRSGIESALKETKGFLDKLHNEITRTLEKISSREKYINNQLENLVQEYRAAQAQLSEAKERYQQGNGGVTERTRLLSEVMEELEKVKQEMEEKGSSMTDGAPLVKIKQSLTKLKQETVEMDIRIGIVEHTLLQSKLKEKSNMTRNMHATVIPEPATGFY
UniProt A2RU49: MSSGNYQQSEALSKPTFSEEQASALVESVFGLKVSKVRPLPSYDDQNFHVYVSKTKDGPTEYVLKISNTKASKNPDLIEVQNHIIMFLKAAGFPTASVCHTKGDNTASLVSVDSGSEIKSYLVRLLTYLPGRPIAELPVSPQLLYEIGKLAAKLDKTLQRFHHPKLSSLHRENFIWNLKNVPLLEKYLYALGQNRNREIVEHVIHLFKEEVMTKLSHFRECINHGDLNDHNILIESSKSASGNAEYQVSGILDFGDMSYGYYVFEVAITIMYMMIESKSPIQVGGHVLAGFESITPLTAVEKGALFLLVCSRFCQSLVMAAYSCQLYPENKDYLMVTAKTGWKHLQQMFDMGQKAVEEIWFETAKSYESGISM
IGKV3D-7, A0A0C4DH55, UniProt A0A0C4DH55, whole entry, looked up: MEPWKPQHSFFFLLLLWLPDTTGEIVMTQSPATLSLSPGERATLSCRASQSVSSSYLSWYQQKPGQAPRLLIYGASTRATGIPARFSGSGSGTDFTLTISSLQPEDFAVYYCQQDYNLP
UniProt P22304: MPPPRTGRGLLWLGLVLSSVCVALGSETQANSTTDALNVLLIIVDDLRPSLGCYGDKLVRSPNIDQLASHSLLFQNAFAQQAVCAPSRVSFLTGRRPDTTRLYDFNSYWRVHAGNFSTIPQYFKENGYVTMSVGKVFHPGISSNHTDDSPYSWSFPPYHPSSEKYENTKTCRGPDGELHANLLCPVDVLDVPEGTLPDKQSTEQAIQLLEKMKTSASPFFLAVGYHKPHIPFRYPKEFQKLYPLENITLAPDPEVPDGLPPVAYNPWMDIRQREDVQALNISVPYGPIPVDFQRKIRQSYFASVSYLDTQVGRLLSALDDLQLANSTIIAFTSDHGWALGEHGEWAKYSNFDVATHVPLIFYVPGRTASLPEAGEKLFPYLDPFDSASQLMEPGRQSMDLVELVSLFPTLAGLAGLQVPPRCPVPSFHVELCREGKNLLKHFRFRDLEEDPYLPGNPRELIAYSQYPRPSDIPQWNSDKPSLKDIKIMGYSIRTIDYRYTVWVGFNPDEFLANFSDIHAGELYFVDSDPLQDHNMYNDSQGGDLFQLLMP
UniProt Q16666: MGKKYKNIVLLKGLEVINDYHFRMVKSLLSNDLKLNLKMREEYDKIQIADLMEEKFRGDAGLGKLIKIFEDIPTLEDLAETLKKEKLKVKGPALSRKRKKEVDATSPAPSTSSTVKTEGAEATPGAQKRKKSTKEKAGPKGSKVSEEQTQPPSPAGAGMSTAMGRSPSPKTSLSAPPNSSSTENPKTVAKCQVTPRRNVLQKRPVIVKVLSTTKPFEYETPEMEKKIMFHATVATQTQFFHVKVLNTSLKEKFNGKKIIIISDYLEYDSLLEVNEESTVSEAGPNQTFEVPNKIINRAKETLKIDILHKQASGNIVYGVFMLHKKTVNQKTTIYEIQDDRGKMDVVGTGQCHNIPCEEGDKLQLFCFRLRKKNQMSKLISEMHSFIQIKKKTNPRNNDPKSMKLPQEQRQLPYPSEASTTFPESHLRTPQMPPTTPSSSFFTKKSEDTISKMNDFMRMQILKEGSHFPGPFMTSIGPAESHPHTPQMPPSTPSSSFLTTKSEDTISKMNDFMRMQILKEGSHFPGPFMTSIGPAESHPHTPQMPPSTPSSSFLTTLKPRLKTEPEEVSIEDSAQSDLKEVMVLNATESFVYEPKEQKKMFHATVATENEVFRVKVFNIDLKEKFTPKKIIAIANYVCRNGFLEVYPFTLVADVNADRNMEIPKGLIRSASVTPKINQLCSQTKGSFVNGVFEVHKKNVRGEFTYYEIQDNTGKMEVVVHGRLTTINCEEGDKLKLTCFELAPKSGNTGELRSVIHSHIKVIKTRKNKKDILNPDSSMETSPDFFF
UniProt Q9H7X7: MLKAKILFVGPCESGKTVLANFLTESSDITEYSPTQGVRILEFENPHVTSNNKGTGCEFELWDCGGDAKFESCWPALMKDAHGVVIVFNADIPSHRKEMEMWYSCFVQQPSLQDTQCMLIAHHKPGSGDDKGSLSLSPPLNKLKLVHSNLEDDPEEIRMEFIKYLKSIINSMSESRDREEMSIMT
UniProt Q8NBZ0, whole entry, looked up: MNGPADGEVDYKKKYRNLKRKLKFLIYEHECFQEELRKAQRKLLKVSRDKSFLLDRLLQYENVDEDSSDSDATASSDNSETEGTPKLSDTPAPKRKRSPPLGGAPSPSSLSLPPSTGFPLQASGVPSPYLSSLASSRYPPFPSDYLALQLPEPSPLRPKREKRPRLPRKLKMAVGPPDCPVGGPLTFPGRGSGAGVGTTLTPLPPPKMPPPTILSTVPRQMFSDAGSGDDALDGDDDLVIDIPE
UniProt Q96LU5: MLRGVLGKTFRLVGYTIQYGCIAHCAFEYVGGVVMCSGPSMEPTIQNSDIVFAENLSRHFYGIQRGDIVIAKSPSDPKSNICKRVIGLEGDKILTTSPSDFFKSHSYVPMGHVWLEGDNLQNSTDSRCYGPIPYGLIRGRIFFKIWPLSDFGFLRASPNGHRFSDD
UniProt Q9NRR6: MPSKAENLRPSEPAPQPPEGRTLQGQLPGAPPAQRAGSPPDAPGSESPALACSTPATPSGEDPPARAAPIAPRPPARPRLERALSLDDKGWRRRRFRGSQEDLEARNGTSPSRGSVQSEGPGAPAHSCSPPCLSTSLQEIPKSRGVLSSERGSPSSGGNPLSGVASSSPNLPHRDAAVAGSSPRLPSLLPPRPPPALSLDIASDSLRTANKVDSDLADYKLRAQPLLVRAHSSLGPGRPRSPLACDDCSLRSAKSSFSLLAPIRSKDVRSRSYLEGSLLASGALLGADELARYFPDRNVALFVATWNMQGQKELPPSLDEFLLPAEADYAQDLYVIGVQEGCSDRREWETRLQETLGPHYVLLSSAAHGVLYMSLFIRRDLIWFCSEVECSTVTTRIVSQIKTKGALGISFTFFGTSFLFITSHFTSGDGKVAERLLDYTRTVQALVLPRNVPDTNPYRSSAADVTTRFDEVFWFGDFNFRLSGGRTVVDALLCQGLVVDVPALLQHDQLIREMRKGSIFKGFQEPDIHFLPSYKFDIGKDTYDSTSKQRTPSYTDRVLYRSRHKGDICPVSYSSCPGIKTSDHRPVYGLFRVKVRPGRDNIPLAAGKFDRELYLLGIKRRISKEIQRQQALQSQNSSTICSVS

The list shows a part of the results.

Compound in this assay: CC(C)C1=C2N=C(C=C(N2N=C1)NCC3=CC=CC=C3)NCCCCCCN
As to the kind of experiment: log2 fold change, soluble protein after heating vs DMSO (PISA); higher = thermal stabilisation; K562 lysate, 10 uM; active = over 0.2 and 3.5 SD of the protein, either way, in both replicates (recomputed). Summed up: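 Values give the log-two fold change in thermal stability against solvent controls, from duplicates. Crude K562 extract at 1 mg/mL protein, made by dounce homogenisation in PBS pH 7.4 with 1 mM MgCl2, was treated with 10 μM compound for 30 min. After 3 min heating across 48°C-58°C, aliquots were pooled, adjusted to 0.5% NP-40 at 4°C and centrifuged at 21,000xg for 90 min. The supernatant was measured by TMTpro 16plex LC-MS/MS with channel sums equalised.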
As to INHBE (UniProt P58166), the log2 fold change is inactive: -0.028.
The same measure for IGHMBP2 (UniProt P38935): inactive: -0.18.
The value for ING1 (UniProt Q9UK53) was inactive: -0.086; that for IGLC3 (UniProt P0DOY3) was inactive: 1.69; that for IFT52 (UniProt Q9Y366) was inactive: 0.026.
The same measure for ING5 (UniProt Q8WYH8): inactive: -0.028.
Turning to HSPA8 (UniProt E9PN89), the log2 fold change was inactive: 0.007.
The value for HVCN1 (UniProt Q96D96) was inactive: -0.116.
The same measure for IGFBP4 (UniProt P22692): inactive: -0.029; for INO80B (UniProt Q9C086): inactive: 0.287.
The same measure for IGHV3-72, A0A4W8ZXM2: inactive: 0.947; for IFIT3 (UniProt O14879): inactive: -0.059; for IFT57 (UniProt Q9NWB7): inactive: 0.
In the case of HYKK (UniProt A2RU49), the log2 fold change is inactive: 0.193.
As to HYOU1, A0A494C039, the log2 fold change is inactive: 0.084.
For IGKV3D-7, A0A0C4DH55, the log2 fold change was inactive: 0.866.
The value for IDS (UniProt P22304) was inactive: -0.189.
The same measure for INPP5D (UniProt Q92835): inactive: 0.06.
The value for IFI16 (UniProt Q16666) was inactive: -0.001; that for HSPBAP1 (UniProt Q96EW2) was inactive: 0.038.
Take IGKC (UniProt P01834): the log2 fold change was inactive: 1.66.
The value for IFT22 (UniProt Q9H7X7) was inactive: 0.067; that for INO80E (UniProt Q8NBZ0) was inactive: 0.09; that for IMMP1L (UniProt Q96LU5) was inactive: -0.074.
INPP5E (UniProt Q9NRR6): the log2 fold change is inactive: -0.016.
The value for IL27RA (UniProt Q6UWB1) was inactive: 0.153.
